# Laboratory results reported in PubChem BioAssay AID588453 (National Center for Advancing Translational Sciences (NCATS), 2011).
# Amino acid sequences for entries named in this document (tags omitted).
# UniProt O89049, whole entry, looked up: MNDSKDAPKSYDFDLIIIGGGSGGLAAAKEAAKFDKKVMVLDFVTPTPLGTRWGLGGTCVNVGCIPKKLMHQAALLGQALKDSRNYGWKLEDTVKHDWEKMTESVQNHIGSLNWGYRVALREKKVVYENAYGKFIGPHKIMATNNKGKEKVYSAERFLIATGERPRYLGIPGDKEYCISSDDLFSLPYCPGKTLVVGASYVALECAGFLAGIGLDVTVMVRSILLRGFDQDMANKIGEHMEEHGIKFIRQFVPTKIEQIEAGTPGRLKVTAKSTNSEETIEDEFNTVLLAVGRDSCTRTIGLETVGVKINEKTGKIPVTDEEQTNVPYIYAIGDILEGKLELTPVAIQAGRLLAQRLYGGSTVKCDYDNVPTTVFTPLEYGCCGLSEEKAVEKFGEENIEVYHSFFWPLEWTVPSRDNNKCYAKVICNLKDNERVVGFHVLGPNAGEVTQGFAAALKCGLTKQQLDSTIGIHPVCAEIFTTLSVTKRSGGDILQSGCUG
# Values joined by “and” are separate entries in the source; they are usually repeats but may differ in a detail not shown here. Identical values can stand only once. The hits were mostly taken out for another list; the other results follow. Records with an inconclusive call do not appear. Active and inactive are the calls of the source. The call rests on the fitted dose curve; in most records, active means well fitted inhibition curve with a large enough effect; inconclusive means small, poorly fitted or top-dose-only effect; inactive means no such curve, though single readings can be large or run the other way.
# Target: Thioredoxin reductase 1, cytoplasmic (Rattus norvegicus) (UniProt O89049)
# Assay: qHTS Assay for Inhibitors of Mammalian Selenoprotein Thioredoxin Reductase 1 (TrxR1): qHTS; further: nearly all actives have a fitted effect of over 65% in size
# Settings: recombinant rTrxR1, NADPH fluorescence consumption, selenite substrate; at 57.1 µM (top of the series) unless noted
# Excerpt: The selenoprotein thioredoxin reductase (TrxR; EC 1.8.1.9) is a FAD containing homodimeric pyridine nucleotide-disulfide oxidoreductase with many cellular roles. Together with NADPH and its prime substrate thioredoxin (Trx), the enzyme forms the core of the Trx system. The mammalian Trx system exerts a wide spectrum of functions including redox regulation, antioxidant defense, regulation of transcription factors as well as support of cell growth and replication. Many of these functions involve the reduction of Trx, which may subsequently reduce a number of different substrates including ribonucleotide reductase, peroxiredoxins or NFkB. […]
# This BioAssay is a validation of an NADPH fluorescence-based, dual-purpose qHTS rTrxR1 assay designed to find potential inhibitors and substrates of rTrxR1. […]
# Assay protocol: 2 uL of reagents (buffer in column 4 as negative control and 90 nM rTrxR1 in columns 1-3 and 5-48) were dispensed into Greiner black solid-bottom 1,536-well assay plates, followed by 1 uL of NADPH (400 uM final concentration) to each well. […] The plate was immediately transferred to a ViewLux high-throughput CCD imager (PerkinElmer), wherein kinetic measurements of NADPH fluorescence (Ex 340 nm, Em 450 nm) were acquired (8 minute kinetic read, see Table 1). […]
# On the % scale 0 is the no-effect control and ±100 the full control effect.
row,Compound,"activity change, negative = inhibition"
1,CN1[C@@H]2CC[C@H]1CC(OC(=O)C(O)c1ccccc1)C2 (some centres not stated),inactive: 28.6% [at 114 µM]
2,CN1C2CCC1CC(OC(=O)C(O)c1ccccc1)C2 (configuration not stated),inactive: 53.3% and inactive: -3.55%
